Values from PubChem BioAssay AID1259308 (NCATS, 2017)

Assay: 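Knock-downs that increase output of a recombinant reporter protein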 (primary screen)
Cell system: human HEK293 embryonic kidney cells stably expressing firefly luciferase (HEK-CMV-Luc2-Hygro)
Reagents: single siRNA against human genes, 0.8 pmol siRNA per well
Time to read-out: 72 h
Measured: 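Reporter luminescence and viable-cell signal on separate replicate plates, given as percent of non-targeting control and median/MAD z-scores, plus per-cell luciferase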
Scale: total luciferase, z-score and total luciferase, % of control: higher = more reporter protein produced
Rule for the call: 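Active when the median/MAD z-score for overall luciferase is greater than 3; a gene was taken forward for validation with new siRNAs if at least two of its three siRNAs passed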
Meaning of the calls: active = raised luciferase; inactive = no rise
Here is one part, drawn at random, of about 59,000 deposited reagents. Over the whole deposit, about 1,510 (2.6%) were called active. 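Calls use total luciferase alone and ignore viability, so some active siRNAs may act by altering cell number.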 Entries without a mark were called inactive. Reagents against one gene are numbered here. Not all columns of the deposit are shown.

With knock-down of IL21 (GeneID 59067) #1, the record shows total luciferase, z-score 0.896; total luciferase, % of control 99.7.
For IL21 (GeneID 59067) #2, the values are total luciferase, z-score 1.8; total luciferase, % of control 118.
Depletion of IL21 (GeneID 59067) #3 gave: total luciferase, z-score 1.47; total luciferase, % of control 111.
With knock-down of PIP5K1C (GeneID 23396) #1, the screen gave total luciferase, z-score -0.331; total luciferase, % of control 75.3.
After knock-down of PIP5K1C (GeneID 23396) #2, the screen gave total luciferase, z-score -0.905; total luciferase, % of control 63.9.
Knock-down of PIP5K1C (GeneID 23396) #3 gave: total luciferase, z-score -0.0317; total luciferase, % of control 81.3.
Depletion of PRKY (GeneID 5616) #1 resulted in: total luciferase, z-score -0.699; total luciferase, % of control 68.
PRKY (GeneID 5616) #2 showed total luciferase, z-score -0.738; total luciferase, % of control 67.2.
PRKY (GeneID 5616) #3 gave total luciferase, z-score 1.13; total luciferase, % of control 104.
For G0S2 (GeneID 50486) #1, the values are total luciferase, z-score -0.488; total luciferase, % of control 72.2.
After knock-down of G0S2 (GeneID 50486) #2, the record shows total luciferase, z-score 0.0587; total luciferase, % of control 83.1.
Depletion of G0S2 (GeneID 50486) #3 resulted in: total luciferase, z-score 1.91; total luciferase, % of control 120.
With knock-down of GATAD2B (GeneID 57459) #1 the results were total luciferase, z-score 0.101; total luciferase, % of control 83.9.
GATAD2B (GeneID 57459) #2 gave total luciferase, z-score -0.846; total luciferase, % of control 65.1.
GATAD2B (GeneID 57459) #3 scored total luciferase, z-score -1.99; total luciferase, % of control 42.4.
After knock-down of POFUT1 (GeneID 23509) #1 the results were total luciferase, z-score 2.51; total luciferase, % of control 132.
Against POFUT1 (GeneID 23509) #2 the deposit lists total luciferase, z-score -0.37; total luciferase, % of control 74.5.
After knock-down of POFUT1 (GeneID 23509) #3, the record shows total luciferase, z-score -1.39; total luciferase, % of control 54.3.
After knock-down of SIGLEC1 (GeneID 6614) #1, the record shows total luciferase, z-score 0.143; total luciferase, % of control 84.7.
Silencing of SIGLEC1 (GeneID 6614) #2 gave: total luciferase, z-score 0.442; total luciferase, % of control 90.7.
For SIGLEC1 (GeneID 6614) #3, the entry reads total luciferase, z-score 1.77; total luciferase, % of control 117.
Knock-down of MCOLN3 (GeneID 55283) #1 gave: total luciferase, z-score -0.173; total luciferase, % of control 78.4.
Knock-down of MCOLN3 (GeneID 55283) #2 gave: total luciferase, z-score -1.15; total luciferase, % of control 59.
Silencing of MCOLN3 (GeneID 55283) #3 came out at: total luciferase, z-score -0.938; total luciferase, % of control 63.2.
With knock-down of GSTT1 (GeneID 2952) #1 the results were total luciferase, z-score 1.1; total luciferase, % of control 104.
GSTT1 (GeneID 2952) #2 scored total luciferase, z-score -0.68; total luciferase, % of control 68.4.
Against GSTT1 (GeneID 2952) #3, the values are total luciferase, z-score 1.12; total luciferase, % of control 104.
For PIAS3 (GeneID 10401) #1, the values are total luciferase, z-score 0.0557; total luciferase, % of control 83.
Against PIAS3 (GeneID 10401) #2, the values are total luciferase, z-score 1.33; total luciferase, % of control 108.
After knock-down of PIAS3 (GeneID 10401) #3 the results were total luciferase, z-score 0.615; total luciferase, % of control 94.1.
Silencing of TSPYL1 (GeneID 7259) #1 gave: total luciferase, z-score 0.15; total luciferase, % of control 84.9.
With knock-down of TSPYL1 (GeneID 7259) #2, the record shows total luciferase, z-score 2.35; total luciferase, % of control 129.
Against TSPYL1 (GeneID 7259) #3, the values are total luciferase, z-score -0.291; total luciferase, % of control 76.1.
UBFD1 (GeneID 56061) #1 showed total luciferase, z-score -0.875; total luciferase, % of control 64.5.
UBFD1 (GeneID 56061) #2 gave total luciferase, z-score -0.782; total luciferase, % of control 66.3.
UBFD1 (GeneID 56061) #3 gave total luciferase, z-score 0.965; total luciferase, % of control 101.
THNSL1 (GeneID 79896) #1 gave total luciferase, z-score 0.0293; total luciferase, % of control 82.5.
Against THNSL1 (GeneID 79896) #2, the entry reads total luciferase, z-score -0.884; total luciferase, % of control 64.3.
Depletion of THNSL1 (GeneID 79896) #3 gave: total luciferase, z-score 0.235; total luciferase, % of control 86.6.
With knock-down of LINC01249 (GeneID 727982) #1 the results were total luciferase, z-score 0.906; total luciferase, % of control 99.9.
With knock-down of LINC01249 (GeneID 727982) #2, the screen gave total luciferase, z-score 0.643; total luciferase, % of control 94.7.
For LINC01249 (GeneID 727982) #3 the deposit lists total luciferase, z-score 0.225; total luciferase, % of control 86.4.
